Results: patent publication US5726156A (Trega Biosciences, Inc., priority 1995, dated 1998)

Experiments:
[1] = tested on: kidney (cyclosporine-induced nephrotoxicity); assay: Cyclosporine-induced nephrotoxicity; type: in vivo, rats
Description: In the first study, male Sprague-Dawley rats (n=43) with a weight range of 240-290 g at the initiation of the cyclosporine A (CsA) treatment were divided into 4 weight matched groups. The groups were as follows: (1) Control: no CsA, no EX-2, treatment only with CsA vehicle (PBS) PO and EX-2 vehicle (also PBS) IP; (2) CsA: treatment with CsA (50 mg/kg in PBS administered PO daily at 0830 hr for 9 days) and IP injections of PBS (Ex-2 vehicle); (3) CsA and 50 μg: CsA treatment identical to group 2 with the addition of EX-2 (50 μg/kg IP administered daily at 0800 and 1700 hr in EX-2 vehicle); and (4) CsA and 500 μg: CsA treatment identical to groups 2 and 3, and EX-2 treatment protocol similar to group 3 except that the dose of EX-2 was 500 μg/kg BW. After deep anesthesia was assured, the rats were cannulated in the trachea (PE 240) jugular vein, femoral artery, and bladder (PE 50 for the previous 3 cannulations).After cannulation, infusion of ^3 H-inulin was initiated 50 min prior to the measurement period to assess glomerular filtration rate, renal blood flow and plasma flow. Renal blood flow was determined by the inulin extraction technique. At the end of the study, the kidneys were removed for histological analysis.
In the second study, male Sprague-Dawley rats (n=3l) with a weight range of 240-290 g at the time of initiation of the cyclosporine treatment were divided into 4 weight-matched groups. The time course and protocol of this study matched the first study with the following exceptions: (1) The daily dose of CsA was reduced to 30 mg/kg and was administered subcutaneously (SC) and (2) the 50 μ/kg dose of EX-2 was substituted with a twice daily dose of 200 μg/kg. The 500 μg/kg dose of EX-2 was repeated in this study. Renal hemodynamics were determined and extracellular fluid volumes were also assessed.
In the second study, where extracellular fluid volumes (ECF) were measured, there were no differences in ECF among control and treatment groups (27.6±1.9 in control, 27.5±1.7 in CsA and vehicle, 26.2±0.9 in CsA +200 μg/kg EX-2, and 25.7±1.4% in CsA +500 μg/kg EX-2). […]

[2] = general procedure: Boc solid-phase peptide synthesis; MBHA; dicyclohexylcarbodiimide; settings: whole synthesis, 215 nm
[3] = solid-phase peptide synthesis; settings: whole synthesis, RP-HPLC, absorption at 215 nm

**Q.** What does the source list for “Ac-Nle-Gln-His-(D)Phe-Arg-(D)Trp-Gly-NH2 [EX-2]”?
**A.** urinary protein excretion ([1]; compared to CsA-treated rats): did not increase urinary protein excretion; extracellular fluid volumes (ECF) ([1]; second study: CsA 30 mg/kg SC + 200 μg/kg EX-2 twice daily): 26.2±0.9%; extracellular fluid volumes (ECF) ([1]; second study: CsA 30 mg/kg SC + 500 μg/kg EX-2 twice daily): 25.7±1.4%

**Q.** For NIe-Gln-His-(D) Phe-Arg-(D)Trp-GlY, which “final HPLC purity” value [2] is on record?
**A.** 97%

**Q.** For Nle-Gln-His-(D) Phe-Arg-(D) Trp-Gly-NH2, which “final HPLC purity” value [3] is on record?
**A.** 98%
